Measurements from PMC9969585.
These are yes or no findings as the source states them, for the method shown. In cells and extracts the contact can be indirect. Some results given as binding are weak or reduced against the parent protein; the word gives no strength. Tags and fused reporters may be left off the sequences shown.

Chains of the proteins cited; added tags and fusions are not shown.
UniProt P08047: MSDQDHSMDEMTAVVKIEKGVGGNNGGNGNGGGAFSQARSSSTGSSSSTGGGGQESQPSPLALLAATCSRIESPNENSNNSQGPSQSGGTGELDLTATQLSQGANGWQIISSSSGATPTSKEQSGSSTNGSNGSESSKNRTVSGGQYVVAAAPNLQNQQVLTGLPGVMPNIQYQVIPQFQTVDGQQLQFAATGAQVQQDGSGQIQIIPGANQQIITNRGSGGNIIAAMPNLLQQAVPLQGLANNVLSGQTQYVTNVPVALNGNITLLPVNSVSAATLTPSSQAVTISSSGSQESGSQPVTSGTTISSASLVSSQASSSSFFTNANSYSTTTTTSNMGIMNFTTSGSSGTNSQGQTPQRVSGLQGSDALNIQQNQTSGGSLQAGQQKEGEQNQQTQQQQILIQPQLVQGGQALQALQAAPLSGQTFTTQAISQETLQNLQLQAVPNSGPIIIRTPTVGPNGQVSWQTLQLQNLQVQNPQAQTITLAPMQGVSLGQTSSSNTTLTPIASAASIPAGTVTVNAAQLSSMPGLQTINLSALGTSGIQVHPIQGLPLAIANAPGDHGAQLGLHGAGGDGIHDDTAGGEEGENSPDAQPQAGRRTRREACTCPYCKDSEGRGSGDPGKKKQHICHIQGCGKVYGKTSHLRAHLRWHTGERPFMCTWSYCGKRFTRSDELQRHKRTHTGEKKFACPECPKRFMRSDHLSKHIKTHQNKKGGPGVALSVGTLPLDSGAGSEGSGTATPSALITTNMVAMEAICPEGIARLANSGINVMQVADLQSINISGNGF

Biological target: HA-tagged Sp1 (UniProt P08047)
Experiment: co-IP; H1299 cells co-transfected with pcDNA3.0-Flag-SKA2 and pcDNA3.0-HA-Sp1; whole cell extracts precleared with Protein A/G Magnetic Beads, incubated with anti-HA antibody or normal rabbit IgG overnight at 4 °C; immunoblot with anti-Flag antibody

binding: binds
B1: Flag-tagged SKA2 (spindle and kinetochore associated complex subunit 2) (protein, UniProt Q8WVK7 1-121)
chain: MEAEVDKLELMFQKAESDLDYIQYRLEYEIKTNHPDSASEKNPVTLLKELSVIKSRYQTLYARFKPVAVEQKESKSRICATVKKTMNMIQKLQKQTDLELSPLTKEEKTAAEQFKFHMPDL
